Laboratory results: PubChem BioAssay AID602196 (INSERM, 2012)

- Purpose: 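Genes whose knock-down alters cisplatin killing of lung cancer cells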
- Cells: human A549 lung cancer cells
- Reagent: siRNA pair against human genes
- Timing: 48 h transfection before cisplatin; time from cisplatin to read-out not stated
- Conditions: cisplatin at a dose killing half of control-siRNA cells; exact dose and duration not given
- Measured: 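Cisplatin cell death as a shift from the 50% death seen with control siRNA; siRNAs toxic or growth-blocking alone scored 0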
- Reading the numbers: two-siRNA summed score (-2 to +2): higher = both siRNAs protect from cisplatin killing; -2 means both sensitise; mean protection from cisplatin (shift in death): higher = protection from cisplatin killing
- Rule for the call: 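Each siRNA scores 0 if harmful alone by LDH or WST-1, otherwise +1 if it reduces and -1 if it increases cisplatin killing; a gene is active when both siRNAs agree (sum +2 or -2)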
- Calls: active = both siRNAs shift cisplatin killing the same way; inactive = no consistent shift, or siRNA harmful alone
In all, the deposit lists about 23,000 reagents; below is an unselected part. 455 of them (2%) count as active. 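Active includes both protection and sensitisation; some change values fall well beyond the stated -50 to +50 range.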 Unmarked entries are inactive. Not all columns of the deposit are shown. Not stated in the record: the amount of reagent.

SERF1A | two-siRNA summed score (-2 to +2) = 0; mean protection from cisplatin (shift in death) (%) = 5.9
TPM2 | two-siRNA summed score (-2 to +2) = 0; mean protection from cisplatin (shift in death) (%) = 4.7
KRTAP3-3 | two-siRNA summed score (-2 to +2) = 0; mean protection from cisplatin (shift in death) (%) = 6.2
C19orf53 | two-siRNA summed score (-2 to +2) = 0; mean protection from cisplatin (shift in death) (%) = 3.7
LOC441348 | two-siRNA summed score (-2 to +2) = 0; mean protection from cisplatin (shift in death) (%) = 10.5
CPT1B | two-siRNA summed score (-2 to +2) = -1; mean protection from cisplatin (shift in death) (%) = -9.3
TCHHL1 | two-siRNA summed score (-2 to +2) = 0; mean protection from cisplatin (shift in death) (%) = 5.9
AGPAT2 | two-siRNA summed score (-2 to +2) = 1; mean protection from cisplatin (shift in death) (%) = 21
RAB22A | two-siRNA summed score (-2 to +2) = 0; mean protection from cisplatin (shift in death) (%) = 2.9
TLR3 | two-siRNA summed score (-2 to +2) = 0; mean protection from cisplatin (shift in death) (%) = 0.9
GHITM | two-siRNA summed score (-2 to +2) = -1; mean protection from cisplatin (shift in death) (%) = -7.5
FASTKD2 | two-siRNA summed score (-2 to +2) = 1; mean protection from cisplatin (shift in death) (%) = 18.9
ARL2 | two-siRNA summed score (-2 to +2) = 1; mean protection from cisplatin (shift in death) (%) = 14
ZNF438 | two-siRNA summed score (-2 to +2) = 0; mean protection from cisplatin (shift in death) (%) = 7.3
NDUFB8 | two-siRNA summed score (-2 to +2) = 0; mean protection from cisplatin (shift in death) (%) = 11.8
LOC390250 | two-siRNA summed score (-2 to +2) = 0; mean protection from cisplatin (shift in death) (%) = 14.9
PNLDC1 | two-siRNA summed score (-2 to +2) = 0; mean protection from cisplatin (shift in death) (%) = 0.4
SLC16A1 | two-siRNA summed score (-2 to +2) = 0; mean protection from cisplatin (shift in death) (%) = 7.7
OR13C9 | two-siRNA summed score (-2 to +2) = 0; mean protection from cisplatin (shift in death) (%) = 6.5
NOP56 | two-siRNA summed score (-2 to +2) = 0; mean protection from cisplatin (shift in death) (%) = -4.6
CASP7 | two-siRNA summed score (-2 to +2) = 1; mean protection from cisplatin (shift in death) (%) = 8.1
LSM8 | two-siRNA summed score (-2 to +2) = 0; mean protection from cisplatin (shift in death) (%) = -3.6
PHPT1 | two-siRNA summed score (-2 to +2) = -1; mean protection from cisplatin (shift in death) (%) = -6.7
MTMR1 | two-siRNA summed score (-2 to +2) = 0; mean protection from cisplatin (shift in death) (%) = 0.1
LOC441375 | two-siRNA summed score (-2 to +2) = 0; mean protection from cisplatin (shift in death) (%) = 4.6
NELL2 | two-siRNA summed score (-2 to +2) = 0; mean protection from cisplatin (shift in death) (%) = -5.3

Reprinted from the entries so far, 4 entries:
TCHHL1 | two-siRNA summed score (-2 to +2) = 0; mean protection from cisplatin (shift in death) (%) = 5.9
AGPAT2 | two-siRNA summed score (-2 to +2) = 1; mean protection from cisplatin (shift in death) (%) = 21
RAB22A | two-siRNA summed score (-2 to +2) = 0; mean protection from cisplatin (shift in death) (%) = 2.9
TLR3 | two-siRNA summed score (-2 to +2) = 0; mean protection from cisplatin (shift in death) (%) = 0.9

Next results:
PTGES | two-siRNA summed score (-2 to +2) = -2 (active); mean protection from cisplatin (shift in death) (%) = -16.7
SYTL2 | two-siRNA summed score (-2 to +2) = 1; mean protection from cisplatin (shift in death) (%) = 11.8
GPR32 | two-siRNA summed score (-2 to +2) = -1; mean protection from cisplatin (shift in death) (%) = -11.6
LINC01096 | two-siRNA summed score (-2 to +2) = 0; mean protection from cisplatin (shift in death) (%) = 13
GJA5 | two-siRNA summed score (-2 to +2) = 1; mean protection from cisplatin (shift in death) (%) = 17.2
LOC162073 | two-siRNA summed score (-2 to +2) = 0; mean protection from cisplatin (shift in death) (%) = 2.4
DCD | two-siRNA summed score (-2 to +2) = -1; mean protection from cisplatin (shift in death) (%) = -7.9
RCBTB1 | two-siRNA summed score (-2 to +2) = 0; mean protection from cisplatin (shift in death) (%) = 3.6
PHF7 | two-siRNA summed score (-2 to +2) = 0; mean protection from cisplatin (shift in death) (%) = -19.2
NT5DC1 | two-siRNA summed score (-2 to +2) = 0; mean protection from cisplatin (shift in death) (%) = 1.7
LOC441731 | two-siRNA summed score (-2 to +2) = 0; mean protection from cisplatin (shift in death) (%) = -1.5
LOC339077 | two-siRNA summed score (-2 to +2) = 0; mean protection from cisplatin (shift in death) (%) = 10.2
GRIA1 | two-siRNA summed score (-2 to +2) = 0; mean protection from cisplatin (shift in death) (%) = 2.2
LOC389687 | two-siRNA summed score (-2 to +2) = 0; mean protection from cisplatin (shift in death) (%) = 4
